No constants are given. Whether binding was seen depends on the method and setting. Binding seen in cells or lysates may run through a third protein. Some results given as binding are weak or reduced against the parent protein; the word gives no strength.
How the values were obtained:
[1] = target: Ctbp2, endogenous in wild-type mouse ESCs (E14) (mouse (endogenous in E14 mESCs)) (UniProt P56546); test: co-IP; anti-Ctbp2 antibodies; endogenous proteins in lysates of wild-type or S164E KI mESCs, with or without 500 nM ADR for 4 h (also shScr control cells); 25 mM Tris-Cl pH 7.5, 0.1% NP-40, 150 mM NaCl, 10% glycerol, 4 C overnight
[2] = target: S164E Ctbp2, knock-in (KI) mouse ESCs (mouse (endogenous in E14 mESCs)) (UniProt P56546); test: as above

Sequences of proteins named here, by UniProt entry; tags and fusion partners are left off. A change or cut given only in a name is not applied to a line headed by its entry.
UniProt P56546: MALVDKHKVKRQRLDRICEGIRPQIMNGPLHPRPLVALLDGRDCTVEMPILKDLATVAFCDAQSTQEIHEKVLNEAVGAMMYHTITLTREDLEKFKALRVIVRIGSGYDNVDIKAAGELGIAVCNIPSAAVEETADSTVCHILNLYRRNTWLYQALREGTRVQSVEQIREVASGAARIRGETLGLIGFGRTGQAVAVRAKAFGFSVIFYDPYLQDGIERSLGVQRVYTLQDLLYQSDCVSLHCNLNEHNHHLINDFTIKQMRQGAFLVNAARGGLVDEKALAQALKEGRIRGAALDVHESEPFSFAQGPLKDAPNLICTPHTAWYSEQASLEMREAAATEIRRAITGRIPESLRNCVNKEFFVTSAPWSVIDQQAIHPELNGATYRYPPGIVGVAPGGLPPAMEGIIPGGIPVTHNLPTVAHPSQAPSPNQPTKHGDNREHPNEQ

B1: Hic2 (protein, UniProt Q9JLZ6 1-619)
chain: MVSGPLALRWCPWAGHRDMGPDMELPSHSKQLLLQLNQQRAKGFLCDVIIMVENSIFRAHKNVLAASSIYFKSLVLHDNLINLDTDMVSSTVFQQILDFIYTGKLLPSDQPSEPNFSTLLTAASYLQLPELAALCRRKLKRAGKPFGPGRVGTAGIGRPTRSQRLSTASVIQARFPGLVDVRKGHPAPQELPQAKGSDDELFLGTSTQESTHGLGLGGPAGGEMGLGGCSTSTNGSSGGCEQELGLDLSKKSPPLPPTTPGPHLTPEDPAQLSDSQRESPAPTSTSALPVGNSASFVELGATPEEPMDVEGAEENHLSLLEGQGGQPRKSLRHSARKKDWNKKEPVAGSPFDRRETGSKGSCPGEEGEGTGDRVPNGVLASSAGGGGPSASYGEQSFPCKEEEENGKDGSEDSGQSGSEGGSGHTGAHYVYRQEGYETVSYGDNVYVCIPCAKGFPSSEQLNAHVETHTEEELFIKEEGAYETGSGGAEEEAEDLSTPSAAYTADSRPFKCSVCEKTYKDPATLRQHEKTHWLTRPFPCNICGKMFTQRGTMTRHMRSHLGLKPFACDECGMRFTRQYRLTEHMRVHSGEKPYECQLCGGKFTQQRNLISHLRMHTSPS
[1]
  binding: binds
[2]
  binding: binds

— article PMC11662665
